Data as given in patent EP2054420B1, “BENZIMIDAZO[1,2-C][1,2,3]THIADIAZOL-7-SULFONAMIDES AS INHIBITORS OF CARBONIC ANHYDRASE AND THE INTERMEDIATES FOR PRODUCTION THEREOF” (Biotechnologijos Institutas, priority 2006, dated 2008).
Some of these results come from one statement about several compounds together.

Amino acid sequences for entries named in this document (tags omitted).
UniProt P00921, whole entry: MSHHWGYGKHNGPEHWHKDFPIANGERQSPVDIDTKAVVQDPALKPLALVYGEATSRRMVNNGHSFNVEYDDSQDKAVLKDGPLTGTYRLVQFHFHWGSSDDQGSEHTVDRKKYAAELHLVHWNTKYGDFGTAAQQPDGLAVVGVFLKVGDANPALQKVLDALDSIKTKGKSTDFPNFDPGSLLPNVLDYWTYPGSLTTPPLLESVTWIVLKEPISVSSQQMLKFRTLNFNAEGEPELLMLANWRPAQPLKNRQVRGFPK

The molecules below were run against bovine carbonic anhydrase II (Bos taurus, UniProt P00921) (assay: isothermal titration calorimetry, inhibitor binding to carbonic anhydrase). Conditions: compared with literature compounds TFMSA, AZM, EZA, PFS; not split by isozyme.

| SMILES | calculated "true" or "intrinsic" binding constants |
| --- | --- |
| CSC1=S=Nn2c1nc1ccc(S(N)(=O)=O)cc12 [compound 9, 3-methylthiobenzimidazo[1,2-c][1,2,3]thiadiazol-7-sulfonamide] | significantly better than literature compounds |
| NS(=O)(=O)c1ccc2nc3n(c2c1)N=S=C3Cl [compound 3, 3-chlorobenzimidazo[1,2-c][1,2,3]thiadiazol-7-sulfonamide] | significantly better than literature compounds |
| NS(=O)(=O)c1ccc2nc3n(c2c1)N=S=C3N1CCOCC1 [compound 4, 3-morpholinbenzimidazo[1,2-c][1,2,3]thiadiazol-7-sulfonamide] | significantly better than literature compounds |
